The target of experiment [1] is T1, URAT1 peptide (15 C-terminal residues of human URAT1), TAMRA-labelled (human).
T1 sequence (peptide, tetramethylrhodamine (TAMRA) on the N-terminus): THGTLGNSVLKSTQF
Put plainly: fluorescence polarisation.

The target in experiment [2] is T2, N-terminally biotinylated URAT1 peptide (human).
T2 sequence (peptide, biotin on the N-terminus): THGTLGNSVLKSTQF
Put plainly: SPR. On the technique in general: SPR reads the build-up and loss of mass on a sensor chip optically.

The target of experiment [3] is T3, NaPi-IIa peptide (15 C-terminal residues of NaPi-IIa), TAMRA-labelled (human (identical in mouse)).
T3 sequence (peptide, tetramethylrhodamine (TAMRA) on the N-terminus): SPRLALPAHHNATRL
In words: fluorescence polarisation. A general note: Fluorescence polarisation rises when a labelled molecule tumbles more slowly, as on binding a larger partner.

In experiment [4] the target is T4, URAT1 PBM peptide (KSTQF) (human).
T4 sequence (peptide): KSTQF
In words: crystal structure.

No constants are given. Whether binding was seen depends on the method and setting. Binding calls can cover weak binding; strength is not graded here.

For six substances, binding results are on record in doi:10.1101/2025.07.21.665923 (bioRxiv, 2025).

Regarding “PDZ1 domain of human NHERF1 (1PDZ1), C-terminal His8-tag (domain or fragment)”, the binding result in experiment [1] is given as “binds weakly”.
Turning to “PDZ3 domain of human PDZK1 (3PDZ3), C-terminal His8-tag (domain or fragment)”, the binding entry in experiment [2] and in experiment [3] was “binds weakly” each time.
“PDZ2 domain of human PDZK1 (3PDZ2), C-terminal His8-tag (domain or fragment)”: the binding entry in experiment [2] is “binds”; in experiment [3] it was “binds weakly”.
As to “PDZ4 domain of human PDZK1 (3PDZ4), C-terminal His8-tag (domain or fragment)”, the binding entry in experiment [3] is recorded as “binds weakly”.
“PDZ2 domain of human NHERF1 (1PDZ2), C-terminal His8-tag (domain or fragment)”: the binding result in experiment [1] is reported as “binds weakly”.
With “PDZ2 domain of human PDZK1 as in the crystallization construct 3PDZ2^KSTQF (domain or fragment)”, in experiment [4], the binding entry is “binds”.
